# The supplement of paper PMC4840960
# Counter-ions that a name gives are not always drawn. ± gives the standard deviation of the averaged measurements. The list shows a part of the results. Baselines shift from plate to plate; read single values as rough.
# Test system: E18 rat cortical neuron-glia co-culture
# Assay: total nuclei (DAPI) / Olig2+ nuclei (ratio); higher = more depletion of OPC/OL lineage cells
# Conditions: treatment time: 8 days (DIV5-DIV13)
Compound,total nuclei (1 µM),total nuclei (5 µM)
Oc1c(Cl)cc(Cl)c(Cl)c1Cc1c(O)c(Cl)cc(Cl)c1Cl [Hexachlorophene],> 40,–
CN1CCN2c3ncccc3Cc3ccccc3C2C1 (stereo not given) [Mirtazapine],3.27,3.9
CC[C@H](C)C(=O)O[C@H]1C[C@H](O)C=C2C=C[C@H](C)[C@H](CC[C@@H](O)C[C@@H](O)CC(=O)O)[C@H]21 [Pravastatin],5.63,6.2
COC(=O)C1=C(C)NC(C)=C(C(=O)OC(C)C)C1c1cccc2nonc12 (stereo not given) [Isradipine],2.67,24.9
NNCCc1ccccc1 [Phenelzine],4.21 ± 0.95,> 40
CC(=O)OCC(=O)[C@@]1(O)CC[C@H]2[C@@H]3CCC4=CC(=O)CC[C@]4(C)[C@H]3C(=O)C[C@@]21C [Cortisone acetate],3.18,3.5
Cc1ccc(C)c(OCCCC(C)(C)C(=O)O)c1 [Gemfibrozil],4.22,–
Clc1ccc(COC(Cn2ccnc2)c2ccc(Cl)cc2Cl)cc1 (stereo not given) [Econazole],8.87,–
COc1cccc2c1C(=O)c1c(O)c3c(c(O)c1C2=O)C[C@@](O)(C(=O)CO)C[C@@H]3O[C@H]1C[C@H](N)[C@H](O)[C@H](C)O1 [Adriamycin],10.3 ± 12,–
N=C(N)N [Guanidine],2.88,2.8
Cc1c(OCC(F)(F)F)ccnc1C[S+]([O-])c1nc2ccccc2[nH]1 (stereo not given) [Lansoprazole],3.3,4.5
CC(C)NCC(O)COc1ccc(CCOCC2CC2)cc1 (stereo not given) [Betaxolol],2.65,2.6
CCOC(=O)C1=C(C)NC(C)=C(C(=O)OCC)C1c1ccccc1/C=C/C(=O)OC(C)(C)C [Lacidipine],3.67,–
OCCOCCN1CCN(C(c2ccccc2)c2ccc(Cl)cc2)CC1 (stereo not given) [Hydroxyzine pamoate salt],3.88,4.4
CC/C(=C(\c1ccccc1)c1ccc(OCCN(C)C)cc1)c1ccccc1 [Tamoxifen],3.1,–
CC(=O)[C@@]1(O)CC[C@H]2[C@@H]3C[C@H](C)C4=CC(=O)C=C[C@]4(C)[C@@]3(F)[C@@H](O)C[C@@]21C [Fluorometholone],4.3,4.9
CCC1=C(C)CN(C(=O)NCCc2ccc(S(=O)(=O)NC(=O)N[C@H]3CC[C@H](C)CC3)cc2)C1=O [Glimepiride],3.51,4.2

# Single records, from the list above:
# CC(=O)OCC(=O)[C@@]1(O)CC[C@H]2[C@@H]3CCC4=CC(=O)CC[C@]4(C)[C@H]3C(=O)C[C@@]21C [Cortisone acetate] is listed as total nuclei (1 µM): 3.18; total nuclei (5 µM): 3.5
# N=C(N)N [Guanidine] is listed as total nuclei (1 µM): 2.88; total nuclei (5 µM): 2.8

# (continued)

Compound,total nuclei (1 µM),total nuclei (5 µM)
CC(C)(O)c1ccccc1CC[C@@H](SCC1(CC(=O)O)CC1)c1cccc(/C=C/c2ccc3ccc(Cl)cc3n2)c1 [Montelukast],3.17,> 40
CS(=O)(=O)c1ccc(-c2cc(Br)sc2-c2ccc(F)cc2)cc1,3.73,–
CN(C)C(=O)C(CCN1CCC(O)(c2ccc(Cl)cc2)CC1)(c1ccccc1)c1ccccc1 [Loperamide],3.13,5.2
CCC1(c2ccccc2)C(=O)NCNC1=O [Primidone],2.76,2.8
O=C1C(CC[S+]([O-])c2ccccc2)C(=O)N(c2ccccc2)N1c1ccccc1 (stereo not given) [Sulfinpyrazone],2.8,3
CC(COc1ccccc1)NC(C)C(O)c1ccc(O)cc1 (stereo not given) [Isoxsuprine],3.64,3.8
CSc1ccc2c(c1)N(CCC1CCCCN1C)c1ccccc1S2 (stereo not given) [Thioridazine],3.5,–
CN(C)CCC=C1c2ccccc2COc2ccccc21 [Doxepin],3.25 ± 0.25,4.1 ± 0.99
COc1ccc(Cl)cc1C(=O)NCCc1ccc(S(=O)(=O)NC(=O)NC2CCCCC2)cc1 [Glyburide],2.85,2.8
COC(=O)CCc1ccc(OCC(O)CNC(C)C)cc1 (stereo not given) [Esmolol],2.9,2.9
CN(C)CCOc1ccc(/C(=C(/CCCl)c2ccccc2)c2ccccc2)cc1 [Toremifene],3.15,> 40
Clc1ccc(COC(Cn2ccnc2)c2ccc(Cl)cc2Cl)c(Cl)c1 (stereo not given) [Miconazole],5,–
NC(Cc1cc(I)c(Oc2cc(I)c(O)c(I)c2)c(I)c1)C(=O)O (stereo not given) [Thyroxine],4.2,–
O=C1[C@H](CC[C@H](O)c2ccc(F)cc2)[C@@H](c2ccc(O)cc2)N1c1ccc(F)cc1 [Ezetimibe],4.59,3.9
COc1cc([C@@H]2c3cc4c(cc3[C@@H](O[C@@H]3O[C@@H]5CO[C@@H](C)O[C@H]5[C@H](O)[C@H]3O)[C@H]3COC(=O)[C@H]23)OCO4)cc(OC)c1O [Etoposide],> 40,–
CN(C)c1ccc(O)c2c1C[C@H]1C[C@H]3[C@H](N(C)C)C(O)=C(C(N)=O)C(=O)[C@@]3(O)C(O)=C1C2=O [Minocycline],4.27,4.5
